Test results reported in PMC6503954.

Target: T1, GFP-tagged aPKCι (UniProt P41743)
T1 sequence: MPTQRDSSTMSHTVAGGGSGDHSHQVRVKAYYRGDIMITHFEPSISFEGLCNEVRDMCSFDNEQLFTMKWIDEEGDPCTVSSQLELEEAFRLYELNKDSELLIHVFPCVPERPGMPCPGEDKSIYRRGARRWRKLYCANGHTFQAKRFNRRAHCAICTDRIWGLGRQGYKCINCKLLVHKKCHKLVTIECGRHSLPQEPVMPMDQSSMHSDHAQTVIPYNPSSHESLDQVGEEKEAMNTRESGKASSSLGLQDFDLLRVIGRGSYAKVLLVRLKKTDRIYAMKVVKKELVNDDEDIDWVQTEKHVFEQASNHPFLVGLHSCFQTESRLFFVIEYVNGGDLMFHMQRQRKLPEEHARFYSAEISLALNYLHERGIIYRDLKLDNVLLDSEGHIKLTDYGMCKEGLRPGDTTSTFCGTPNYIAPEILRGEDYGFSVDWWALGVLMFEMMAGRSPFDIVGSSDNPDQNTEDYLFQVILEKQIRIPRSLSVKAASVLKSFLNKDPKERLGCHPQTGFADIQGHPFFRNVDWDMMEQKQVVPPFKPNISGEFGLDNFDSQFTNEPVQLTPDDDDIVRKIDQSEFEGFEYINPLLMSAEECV
Test: co-IP; HCT116 cells co-transfected; GFP-Trap-M or FLAG-M2 beads, 4°C, 90 min; lysis buffer 20 mM Tris-HCl pH 8, 130 mM NaCl, 1% Triton X-100, 1 mM DTT, 10 mM NaF; some samples with the aPKCι inhibitor CRT0066854

## FARP2 FERM-FA domain (in pCMV6-Entry) (human) (domain or fragment)
  binding: binds

No constants are given. Whether binding was seen depends on the method and setting. Binding seen in cells or lysates may run through a third protein. Binding can be weak; no strength is given. Sequences can lack the tags named with a protein.
